Measurements published in the supplement of paper PMC11438910.
The other results are listed elsewhere or left out. Only a few entries rise above the background.

Columns and labels:
Test in all cases: fluorescence intensity of antibody binding to polysaccharide-coupled beads; higher = stronger binding
[1] = biological target: pneumococcal polysaccharide Pn18B
[2] = biological target: pneumococcal polysaccharide Pn18C
[3] = biological target: pneumococcal polysaccharide Pn18F
[4] = biological target: pneumococcal polysaccharide Pn19A
[5] = biological target: pneumococcal polysaccharide Pn19B
[6] = biological target: pneumococcal polysaccharide Pn19C
[7] = biological target: pneumococcal polysaccharide Pn19F
[8] = biological target: pneumococcal polysaccharide Pn2
[9] = biological target: pneumococcal polysaccharide Pn20A
[10] = biological target: pneumococcal polysaccharide Pn20B
[11] = biological target: pneumococcal polysaccharide Pn21
[12] = biological target: pneumococcal polysaccharide Pn22A
[13] = biological target: pneumococcal polysaccharide Pn22F
[14] = biological target: pneumococcal polysaccharide Pn23A
[15] = biological target: pneumococcal polysaccharide Pn23B
[16] = biological target: pneumococcal polysaccharide Pn23F
[17] = biological target: pneumococcal polysaccharide Pn24A
[18] = biological target: pneumococcal polysaccharide Pn24B
[19] = biological target: pneumococcal polysaccharide Pn24F
[20] = biological target: pneumococcal polysaccharide Pn25A
[21] = biological target: pneumococcal polysaccharide Pn25F
[22] = biological target: pneumococcal polysaccharide Pn27
[23] = biological target: pneumococcal polysaccharide Pn28A
[24] = antibody concentration 2.8593 ng/mL
[25] = antibody concentration 15.2894 ng/mL
[26] = antibody concentration 81.7561 ng/mL
[27] = antibody concentration 437.17 ng/mL
[28] = antibody concentration 2337.65 ng/mL
[29] = antibody concentration 12500 ng/mL
[30] = antibody concentration 0.1 ng/mL
[31] = antibody concentration 0.534724 ng/mL

B1: 3S41.2 (protein)
chain 1: EVQLVESGGGLVQPGGSLRLSCATSGFTFRNYWMYWFRQAPGKGLDWVSSISDSSSNTFYSDSVKGRFTISRDNAKNTLYLQMNSLRAEDTAVYYCARRPIAAATGVYWYFDLWGPGTPITVSS
chain 2: QAALTQPPSMSGSPGQSVTISCTGTSSDIGGYNRVSWYQQYPGKAPKLMIYEVSKRPSGVSDRFSGSKSGNTAALTISGLQAADEADYYCSSYAGSYTFVLFGGGTRLTVL
- fluorescence intensity [1, 24]: 30 MFI
- fluorescence intensity [1, 25]: 30.2 MFI
- fluorescence intensity [1, 26]: 30 MFI
- fluorescence intensity [1, 27]: 32.5 MFI
- fluorescence intensity [1, 28]: 37 MFI
- fluorescence intensity [1, 29]: 53.5 MFI
- fluorescence intensity [2, 30]: 20 MFI
- fluorescence intensity [2, 31]: 18 MFI
- fluorescence intensity [2, 24]: 17.5 MFI
- fluorescence intensity [2, 25]: 19.5 MFI
- fluorescence intensity [2, 26]: 19 MFI
- fluorescence intensity [2, 27]: 21.2 MFI
- fluorescence intensity [2, 28]: 27.2 MFI
- fluorescence intensity [2, 29]: 46.2 MFI
- fluorescence intensity [3, 30]: 24 MFI
- fluorescence intensity [3, 31]: 22 MFI
- fluorescence intensity [3, 24]: 22 MFI
- fluorescence intensity [3, 25]: 22.8 MFI
- fluorescence intensity [3, 26]: 23 MFI
- fluorescence intensity [3, 27]: 25.5 MFI
- fluorescence intensity [3, 28]: 31.5 MFI
- fluorescence intensity [3, 29]: 49 MFI
- fluorescence intensity [4, 30]: 19 MFI
- fluorescence intensity [4, 31]: 19 MFI
- fluorescence intensity [4, 24]: 19 MFI
- fluorescence intensity [4, 25]: 18 MFI
- fluorescence intensity [4, 26]: 19 MFI
- fluorescence intensity [4, 27]: 20 MFI
- fluorescence intensity [4, 28]: 25 MFI
- fluorescence intensity [4, 29]: 40.5 MFI
- fluorescence intensity [5, 30]: 28 MFI
- fluorescence intensity [5, 31]: 30.5 MFI
- fluorescence intensity [5, 24]: 31 MFI
- fluorescence intensity [5, 25]: 30 MFI
- fluorescence intensity [5, 26]: 29.8 MFI
- fluorescence intensity [5, 27]: 33.2 MFI
- fluorescence intensity [5, 28]: 84.8 MFI
- fluorescence intensity [5, 29]: 506 MFI
- fluorescence intensity [6, 30]: 25.5 MFI
- fluorescence intensity [6, 31]: 26.5 MFI
- fluorescence intensity [6, 24]: 25.5 MFI
- fluorescence intensity [6, 25]: 26 MFI
- fluorescence intensity [6, 26]: 26.5 MFI
- fluorescence intensity [6, 27]: 28.8 MFI
- fluorescence intensity [6, 28]: 58.5 MFI
- fluorescence intensity [6, 29]: 302 MFI
- fluorescence intensity [7, 30]: 24.5 MFI
- fluorescence intensity [7, 31]: 25.5 MFI
- fluorescence intensity [7, 24]: 25 MFI
- fluorescence intensity [7, 25]: 25.5 MFI
- fluorescence intensity [7, 26]: 27 MFI
- fluorescence intensity [7, 27]: 28.5 MFI
- fluorescence intensity [7, 28]: 38.5 MFI
- fluorescence intensity [7, 29]: 59.5 MFI
- fluorescence intensity [8, 30]: 20 MFI
- fluorescence intensity [8, 31]: 20.8 MFI
- fluorescence intensity [8, 24]: 19.5 MFI
- fluorescence intensity [8, 25]: 19 MFI
- fluorescence intensity [8, 26]: 21 MFI
- fluorescence intensity [8, 27]: 21 MFI
- fluorescence intensity [8, 28]: 25.5 MFI
- fluorescence intensity [8, 29]: 36 MFI
- fluorescence intensity [9, 30]: 23 MFI
- fluorescence intensity [9, 31]: 22.2 MFI
- fluorescence intensity [9, 24]: 22 MFI
- fluorescence intensity [9, 25]: 24 MFI
- fluorescence intensity [9, 26]: 23 MFI
- fluorescence intensity [9, 27]: 26 MFI
- fluorescence intensity [9, 28]: 55.5 MFI
- fluorescence intensity [9, 29]: 324 MFI
- fluorescence intensity [10, 30]: 25 MFI
- fluorescence intensity [10, 31]: 23 MFI
- fluorescence intensity [10, 24]: 24.8 MFI
- fluorescence intensity [10, 25]: 23 MFI
- fluorescence intensity [10, 26]: 24.5 MFI
- fluorescence intensity [10, 27]: 24 MFI
- fluorescence intensity [10, 28]: 30 MFI
- fluorescence intensity [10, 29]: 64.5 MFI
- fluorescence intensity [11, 30]: 18.5 MFI
- fluorescence intensity [11, 31]: 19.2 MFI
- fluorescence intensity [11, 24]: 19.8 MFI
- fluorescence intensity [11, 25]: 19.2 MFI
- fluorescence intensity [11, 26]: 19.5 MFI
- fluorescence intensity [11, 27]: 18.8 MFI
- fluorescence intensity [11, 28]: 23 MFI
- fluorescence intensity [11, 29]: 29.5 MFI
- fluorescence intensity [12, 30]: 21.5 MFI
- fluorescence intensity [12, 31]: 20 MFI
- fluorescence intensity [12, 24]: 21.5 MFI
- fluorescence intensity [12, 25]: 19.5 MFI
- fluorescence intensity [12, 26]: 21.5 MFI
- fluorescence intensity [12, 27]: 22 MFI
- fluorescence intensity [12, 28]: 35 MFI
- fluorescence intensity [12, 29]: 116 MFI
- fluorescence intensity [13, 30]: 28.2 MFI
- fluorescence intensity [13, 31]: 33 MFI
- fluorescence intensity [13, 24]: 30.8 MFI
- fluorescence intensity [13, 25]: 32 MFI
- fluorescence intensity [13, 26]: 30.5 MFI
- fluorescence intensity [13, 27]: 31.5 MFI
- fluorescence intensity [13, 28]: 35.5 MFI
- fluorescence intensity [13, 29]: 52.5 MFI
- fluorescence intensity [14, 30]: 25.5 MFI
- fluorescence intensity [14, 31]: 26 MFI
- fluorescence intensity [14, 24]: 23.5 MFI
- fluorescence intensity [14, 25]: 26 MFI
- fluorescence intensity [14, 26]: 28.5 MFI
- fluorescence intensity [14, 27]: 36 MFI
- fluorescence intensity [14, 28]: 53.5 MFI
- fluorescence intensity [14, 29]: 106 MFI
- fluorescence intensity [15, 30]: 29.5 MFI
- fluorescence intensity [15, 31]: 29.5 MFI
- fluorescence intensity [15, 24]: 31.5 MFI
- fluorescence intensity [15, 25]: 28.8 MFI
- fluorescence intensity [15, 26]: 31 MFI
- fluorescence intensity [15, 27]: 31.8 MFI
- fluorescence intensity [15, 28]: 35.5 MFI
- fluorescence intensity [15, 29]: 47 MFI
- fluorescence intensity [16, 30]: 18 MFI
- fluorescence intensity [16, 31]: 18.5 MFI
- fluorescence intensity [16, 24]: 19 MFI
- fluorescence intensity [16, 25]: 17.2 MFI
- fluorescence intensity [16, 26]: 16.5 MFI
- fluorescence intensity [16, 27]: 21 MFI
- fluorescence intensity [16, 28]: 26.8 MFI
- fluorescence intensity [16, 29]: 38.5 MFI
- fluorescence intensity [17, 30]: 16 MFI
- fluorescence intensity [17, 31]: 15.2 MFI
- fluorescence intensity [17, 24]: 15 MFI
- fluorescence intensity [17, 25]: 15 MFI
- fluorescence intensity [17, 26]: 16.5 MFI
- fluorescence intensity [17, 27]: 16.5 MFI
- fluorescence intensity [17, 28]: 19 MFI
- fluorescence intensity [17, 29]: 34.5 MFI
- fluorescence intensity [18, 30]: 17.2 MFI
- fluorescence intensity [18, 31]: 17 MFI
- fluorescence intensity [18, 24]: 18.5 MFI
- fluorescence intensity [18, 25]: 17.5 MFI
- fluorescence intensity [18, 26]: 18.5 MFI
- fluorescence intensity [18, 27]: 20 MFI
- fluorescence intensity [18, 28]: 28.2 MFI
- fluorescence intensity [18, 29]: 69 MFI
- fluorescence intensity [19, 30]: 18.2 MFI
- fluorescence intensity [19, 31]: 17 MFI
- fluorescence intensity [19, 24]: 17 MFI
- fluorescence intensity [19, 25]: 18 MFI
- fluorescence intensity [19, 26]: 19 MFI
- fluorescence intensity [19, 27]: 23.5 MFI
- fluorescence intensity [19, 28]: 31 MFI
- fluorescence intensity [19, 29]: 52 MFI
- fluorescence intensity [20, 30]: 23.2 MFI
- fluorescence intensity [20, 31]: 23.2 MFI
- fluorescence intensity [20, 24]: 24 MFI
- fluorescence intensity [20, 25]: 25 MFI
- fluorescence intensity [20, 26]: 25 MFI
- fluorescence intensity [20, 27]: 27 MFI
- fluorescence intensity [20, 28]: 31 MFI
- fluorescence intensity [20, 29]: 39.8 MFI
- fluorescence intensity [21, 30]: 30.5 MFI
- fluorescence intensity [21, 31]: 32.5 MFI
- fluorescence intensity [21, 24]: 31 MFI
- fluorescence intensity [21, 25]: 31.5 MFI
- fluorescence intensity [21, 26]: 30.5 MFI
- fluorescence intensity [21, 27]: 32.5 MFI
- fluorescence intensity [21, 28]: 35.2 MFI
- fluorescence intensity [21, 29]: 55.8 MFI
- fluorescence intensity [22, 30]: 17.5 MFI
- fluorescence intensity [22, 31]: 17.5 MFI
- fluorescence intensity [22, 24]: 18 MFI
- fluorescence intensity [22, 25]: 16 MFI
- fluorescence intensity [22, 26]: 18.5 MFI
- fluorescence intensity [22, 27]: 21 MFI
- fluorescence intensity [22, 28]: 64.5 MFI
- fluorescence intensity [22, 29]: 366 MFI
- fluorescence intensity [23, 30]: 27.5 MFI
- fluorescence intensity [23, 31]: 26.5 MFI
- fluorescence intensity [23, 24]: 26 MFI
- fluorescence intensity [23, 25]: 26.2 MFI
- fluorescence intensity [23, 26]: 28 MFI
- fluorescence intensity [23, 27]: 29 MFI
